In article PMC12339401:

Molecular target: BNIP3(1–158)-GST (human)
Experiment: pull-down; beads precoated with GST, NIX-GST or BNIP3-GST, incubated overnight with HeLa cell lysate, SDS–PAGE and western blot for WIPI proteins; only the target purified

- binding: binds
B1: WIPI2 (endogenous) (protein, UniProt Q9Y4P8 1-454)
chain: MNLASQSGEAGAGQLLFANFNQDNTEVKGASRAAGLGRRAVVWSLAVGSKSGYKFFSLSSVDKLEQIYECTDTEDVCIVERLFSSSLVAIVSLKAPRKLKVCHFKKGTEICNYSYSNTILAVKLNRQRLIVCLEESLYIHNIRDMKVLHTIRETPPNPAGLCALSINNDNCYLAYPGSATIGEVQVFDTINLRAANMIPAHDSPLAALAFDASGTKLATASEKGTVIRVFSIPEGQKLFEFRRGVKRCVSICSLAFSMDGMFLSASSNTETVHIFKLETVKEKPPEEPTTWTGYFGKVLMASTSYLPSQVTEMFNQGRAFATVRLPFCGHKNICSLATIQKIPRLLVGAADGYLYMYNLDPQEGGECALMKQHRLDGSLETTNEILDSASHDCPLVTQTYGAAAGKGTYVPSSPTRLAYTDDLGAVGGACLEDEASALRLDEDSEHPPMILRTD

These are yes or no findings as the source states them, for the method shown. In cells and extracts the contact can be indirect. Binding can be weak; no strength is given.
